Laboratory results: the supplement of paper PMC12889115
The other results are listed elsewhere or left out. These are raw signals, not scaled to a control.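 Primary screen: polymyxin B was added at a level permeabilizing Salmonella outer membranes while sparing inner membranes. DMSO wells, both with and without polymyxin B, established maximum growth. Plate-to-plate variation meant each plate was ranked on its own, and the lowest-OD600 compounds were selected as hits.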

Tested on: Salmonella enterica serovar Typhimurium SL1344
Test: bacterial growth OD600 after 18 h with compound and polymyxin B; higher = more bacterial growth (less inhibition)
Settings: 50 µM, Mueller-Hinton broth

SMILES	bacterial growth OD600 (polymyxin B 0.75 µg/mL)	bacterial growth OD600 (polymyxin B 1 µg/mL)
CCOc1cccc(CN2CCC3(CC2)c2ccccc2[C@@H](NC(=O)CC)[C@@H]3OCCOC)c1O	0.872	–
CN(Cc1ccon1)C(=O)C1CC(Cc2ccc(F)cc2)=NO1 (configuration not stated)	0.826	–
CCOC(=O)C1CCN(CC2(O)CCCN(CC3CCC3)C2=O)CC1 (configuration not stated)	–	1.01
COc1ccc(CN2CCN(Cc3cnn(C)c3C)CC2CCO)cc1C (configuration not stated)	–	0.965
CCC(=O)N1CCC2(CCCN(Cc3cccc(F)c3F)C2=O)C1 (configuration not stated)	–	0.936
CCS(=O)(=O)Nc1cc(C(=O)N2CCN(CCOC)CC2)c2c(c1)nc(-c1ccccc1)n2C	0.826	–
CC#CC(=O)NC1CC(=O)N(Cc2cccc3ccccc23)C1 (configuration not stated)	–	0.945
COc1ccc2ccc(OCc3nc(C(=O)NC4CCCC4)co3)cc2c1	–	0.86
CCn1nc(C)c(CNC(=O)C2(N(C)C)Cc3ccccc3C2)c1C	–	1.23
CC(=O)N1CCCC(CCc2ccccc2C)C1 (configuration not stated)	0.59	–
COc1ccc(C(=O)NCc2cccnc2Oc2ccc(C)nc2)cc1	0.82	–
CC(NC(=O)c1ccccc1OC1CCN(S(C)(=O)=O)CC1)c1ccccc1 (configuration not stated)	–	0.931
Cc1ccc(C(=O)N2CCCC(N3CCN(c4ccc(F)cc4)CC3)C2)c(C)c1 (configuration not stated)	–	0.788
COc1ccc(CNC(=O)C2(N3C[C@@H](C)O[C@@H](C)C3)Cc3ccccc3C2)cc1	–	1.05
COc1cccc(CC2=NOC(C(=O)NCc3cccc(F)c3F)C2)c1 (configuration not stated)	0.965	–
Cc1nc(C)c(C(=O)N2CCc3c(cnc(C)c3CNC(=O)/C=C/c3cccs3)C2)s1	0.78	–

Ordered by SMILES length (ascending): 3 of the compounds above
SMILES	bacterial growth OD600 (polymyxin B 0.75 µg/mL)	bacterial growth OD600 (polymyxin B 1 µg/mL)
COc1ccc(C(=O)NCc2cccnc2Oc2ccc(C)nc2)cc1	0.82	–
CCOC(=O)C1CCN(CC2(O)CCCN(CC3CCC3)C2=O)CC1 (configuration not stated)	–	1.01
CCS(=O)(=O)Nc1cc(C(=O)N2CCN(CCOC)CC2)c2c(c1)nc(-c1ccccc1)n2C	0.826	–

Continued.

SMILES	bacterial growth OD600 (polymyxin B 0.75 µg/mL)	bacterial growth OD600 (polymyxin B 1 µg/mL)
O=C(NCc1ccon1)c1coc(COc2ccccc2)n1	0.853	–
CCCN(CC1CC1)C(=O)c1cn(C2CCCCC2)nn1	–	0.898
CCOC(=O)C1CCCN(C(=O)c2cc(Cn3nc(C)cc3C)[nH]n2)C1 (configuration not stated)	–	1.19
O[C@@H]1CN(Cc2ccccc2OC2CCCC2)CC[C@H]1N1CCN(c2ccccn2)CC1	0.771	–
O=C(CCc1ccco1)N1CCOC(Cc2cccc(C(F)(F)F)c2)C1 (configuration not stated)	0.822	–
COc1ccc(CN2CCN(Cc3ccc(C)s3)CC2CCO)cc1C (configuration not stated)	–	0.9
COCCn1cnc2cc(NC(=O)C3CCCCC3)cc(C(=O)NCC3CCOCC3)c21	0.836	–
COc1ccc(CNC2CCCc3c2cnn3-c2ccccn2)c(F)c1 (configuration not stated)	0.884	–
Cc1nc(N2CCCCCCC2)ncc1C(C)NC(=O)C1=NNC(=O)CC1 (configuration not stated)	0.94	–
COCC(=O)Nc1cc(C(=O)NCCC2=CC[C@H]3C[C@@H]2C3(C)C)cc2nc(-c3cccnc3)n(C)c12	1.03	–
Cc1csc(C(C)N(C)C(=O)CC2(c3ccccc3C)CC(=O)N(Cc3cccnc3)C2=O)n1 (configuration not stated)	0.791	–
CCc1ocnc1C(=O)NCc1cccnc1N(C)C	–	0.875
CN(Cc1ccsc1)c1ccc(C(=O)N2CCCN(c3ncccn3)CC2)cn1	0.788	–
CCn1ccnc1CNC(C)c1cnc(N(C)C2CCCCC2)nc1C (configuration not stated)	0.614	–
CCOC(=O)C1(CCc2ccccc2)CCN(C(=O)c2cnn3cccnc23)CC1	–	0.777
COCCN1CCN(C(=O)c2csc3nc(-c4cccc(F)c4)cn23)CC1	–	1.21
